Reference: publication PMC4161973
No constants are given. Whether binding was seen depends on the method and setting. In cells and extracts the contact can be indirect. Sequences can lack the tags named with a protein.

Experiments:
[1] = target: T1, GST-Kap104 (S. cerevisiae) (UniProt P38217); experiment: pull-down; GST-importins immobilised on Glutathione Sepharose, incubated with purified 3.4 µM Tsr2 or 4 µM Tsr2:eS26 in PBSKMT with competing E. coli lysates for 1 hr at 4°C; Coomassie Blue staining or Western; both purified
T1 sequence: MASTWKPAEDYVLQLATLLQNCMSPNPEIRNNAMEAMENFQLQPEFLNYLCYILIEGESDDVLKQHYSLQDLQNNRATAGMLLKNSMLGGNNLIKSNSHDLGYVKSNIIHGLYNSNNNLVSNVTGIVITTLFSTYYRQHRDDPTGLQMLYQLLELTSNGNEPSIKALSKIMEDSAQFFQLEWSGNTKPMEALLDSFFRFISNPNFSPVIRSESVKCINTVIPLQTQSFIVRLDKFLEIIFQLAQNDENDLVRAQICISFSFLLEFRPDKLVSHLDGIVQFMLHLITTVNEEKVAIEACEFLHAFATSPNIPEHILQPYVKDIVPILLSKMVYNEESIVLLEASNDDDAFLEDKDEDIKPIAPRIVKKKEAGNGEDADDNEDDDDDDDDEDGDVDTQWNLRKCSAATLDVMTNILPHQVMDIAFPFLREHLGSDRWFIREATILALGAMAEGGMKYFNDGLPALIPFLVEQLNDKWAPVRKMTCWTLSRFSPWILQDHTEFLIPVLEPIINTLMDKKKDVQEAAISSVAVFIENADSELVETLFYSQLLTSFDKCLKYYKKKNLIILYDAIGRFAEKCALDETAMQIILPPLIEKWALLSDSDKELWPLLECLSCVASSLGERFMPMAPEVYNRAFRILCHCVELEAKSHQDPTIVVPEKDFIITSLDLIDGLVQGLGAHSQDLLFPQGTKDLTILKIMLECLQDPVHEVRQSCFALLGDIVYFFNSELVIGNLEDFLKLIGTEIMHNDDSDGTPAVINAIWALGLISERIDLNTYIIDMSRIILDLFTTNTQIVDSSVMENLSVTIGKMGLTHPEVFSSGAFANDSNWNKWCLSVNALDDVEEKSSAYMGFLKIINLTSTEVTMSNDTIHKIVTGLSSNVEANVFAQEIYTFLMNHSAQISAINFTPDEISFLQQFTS

GST-Pse1 (S. cerevisiae) = target: T2, GST-Pse1 (S. cerevisiae) (UniProt P32337); experiment: as above
T2 sequence: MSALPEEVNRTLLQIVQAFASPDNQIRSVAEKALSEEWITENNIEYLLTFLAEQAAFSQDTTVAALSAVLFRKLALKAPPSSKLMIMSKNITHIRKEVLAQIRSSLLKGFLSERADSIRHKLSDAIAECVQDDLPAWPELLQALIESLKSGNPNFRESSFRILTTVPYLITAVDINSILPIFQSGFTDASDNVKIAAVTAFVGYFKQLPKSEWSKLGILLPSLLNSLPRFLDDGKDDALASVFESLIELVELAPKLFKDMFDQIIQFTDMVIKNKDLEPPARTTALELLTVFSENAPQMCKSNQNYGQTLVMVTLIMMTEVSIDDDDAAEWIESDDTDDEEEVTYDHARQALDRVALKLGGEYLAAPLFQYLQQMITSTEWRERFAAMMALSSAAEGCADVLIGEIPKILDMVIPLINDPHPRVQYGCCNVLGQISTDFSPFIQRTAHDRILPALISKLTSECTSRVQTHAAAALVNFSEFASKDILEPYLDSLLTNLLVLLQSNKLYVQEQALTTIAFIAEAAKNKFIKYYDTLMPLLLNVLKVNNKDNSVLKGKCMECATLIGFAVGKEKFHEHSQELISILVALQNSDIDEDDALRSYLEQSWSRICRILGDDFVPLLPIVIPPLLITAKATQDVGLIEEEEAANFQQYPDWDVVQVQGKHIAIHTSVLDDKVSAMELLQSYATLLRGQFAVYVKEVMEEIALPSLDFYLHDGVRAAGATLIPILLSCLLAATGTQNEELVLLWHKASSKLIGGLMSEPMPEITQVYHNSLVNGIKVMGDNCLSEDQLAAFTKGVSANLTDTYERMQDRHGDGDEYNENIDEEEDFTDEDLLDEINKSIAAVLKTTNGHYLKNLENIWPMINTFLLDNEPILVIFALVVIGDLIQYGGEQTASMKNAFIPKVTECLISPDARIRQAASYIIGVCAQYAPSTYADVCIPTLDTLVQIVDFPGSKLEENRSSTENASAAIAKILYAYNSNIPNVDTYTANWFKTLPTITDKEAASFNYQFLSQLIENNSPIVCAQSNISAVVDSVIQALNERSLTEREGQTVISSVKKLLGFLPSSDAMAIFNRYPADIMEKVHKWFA

binding [1]: no binding (tested: 4 µM Tsr2:eS26)
binding (GST-Pse1 (S. cerevisiae)): no binding (tested: 4 µM Tsr2:eS26)
Substance: Tsr2:eS26 complex (S. cerevisiae)
